Earlier results, collected in patent US8563609B2, “Nitro fatty acids - neuroprotection and/or inhibition of cognitive decline” (Nitromega Corp., priority 2010, dated 2013).
At least one structure is not confirmed: it was looked up by name or label, or the drawing left a doubt.

Conditions: cited from earlier work

SMILES: CC/C=C\C/C=C\C/C=C\C/C=C\C/C=C\C/C=C\CCC(=O)O [DHA, docosahexaenoic acid]
- reduction in errors on test that measure learning and memory performance versus placebo (900 mg capsules for six months, healthy people with memory complaints): almost double
- memory function (healthy aging adults): improved memory function
